Paper PMC12000354

Sequences of proteins named here, by UniProt entry; tags and fusion partners are left off.
UniProt Q93009: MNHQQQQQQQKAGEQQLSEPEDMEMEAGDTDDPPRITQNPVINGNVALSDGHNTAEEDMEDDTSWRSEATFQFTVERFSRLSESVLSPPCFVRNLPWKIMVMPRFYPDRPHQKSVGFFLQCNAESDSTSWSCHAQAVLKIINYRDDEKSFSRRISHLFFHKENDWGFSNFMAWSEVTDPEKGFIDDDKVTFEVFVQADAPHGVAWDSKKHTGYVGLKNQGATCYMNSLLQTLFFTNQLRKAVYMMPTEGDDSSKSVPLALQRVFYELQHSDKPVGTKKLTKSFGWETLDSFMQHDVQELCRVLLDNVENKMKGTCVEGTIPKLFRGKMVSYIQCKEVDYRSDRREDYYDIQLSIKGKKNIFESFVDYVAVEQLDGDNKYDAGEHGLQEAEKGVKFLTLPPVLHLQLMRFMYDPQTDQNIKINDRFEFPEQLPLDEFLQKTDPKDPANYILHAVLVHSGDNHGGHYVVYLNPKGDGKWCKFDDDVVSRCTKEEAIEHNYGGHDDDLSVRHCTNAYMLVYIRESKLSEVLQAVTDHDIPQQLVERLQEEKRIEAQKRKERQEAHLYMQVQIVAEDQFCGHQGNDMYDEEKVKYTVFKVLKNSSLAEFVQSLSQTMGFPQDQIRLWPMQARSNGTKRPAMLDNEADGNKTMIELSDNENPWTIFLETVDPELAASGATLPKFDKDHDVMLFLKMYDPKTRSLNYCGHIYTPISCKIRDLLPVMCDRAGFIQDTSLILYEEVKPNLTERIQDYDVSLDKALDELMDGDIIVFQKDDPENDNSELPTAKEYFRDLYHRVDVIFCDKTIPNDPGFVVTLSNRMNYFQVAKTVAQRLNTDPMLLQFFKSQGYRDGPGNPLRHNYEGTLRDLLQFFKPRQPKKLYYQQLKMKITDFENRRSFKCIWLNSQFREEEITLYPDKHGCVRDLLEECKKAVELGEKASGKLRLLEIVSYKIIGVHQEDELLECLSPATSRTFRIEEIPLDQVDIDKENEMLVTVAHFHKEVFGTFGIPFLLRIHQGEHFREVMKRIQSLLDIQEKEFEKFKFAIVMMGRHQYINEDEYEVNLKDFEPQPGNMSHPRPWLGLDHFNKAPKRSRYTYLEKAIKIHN
UniProt Q16531: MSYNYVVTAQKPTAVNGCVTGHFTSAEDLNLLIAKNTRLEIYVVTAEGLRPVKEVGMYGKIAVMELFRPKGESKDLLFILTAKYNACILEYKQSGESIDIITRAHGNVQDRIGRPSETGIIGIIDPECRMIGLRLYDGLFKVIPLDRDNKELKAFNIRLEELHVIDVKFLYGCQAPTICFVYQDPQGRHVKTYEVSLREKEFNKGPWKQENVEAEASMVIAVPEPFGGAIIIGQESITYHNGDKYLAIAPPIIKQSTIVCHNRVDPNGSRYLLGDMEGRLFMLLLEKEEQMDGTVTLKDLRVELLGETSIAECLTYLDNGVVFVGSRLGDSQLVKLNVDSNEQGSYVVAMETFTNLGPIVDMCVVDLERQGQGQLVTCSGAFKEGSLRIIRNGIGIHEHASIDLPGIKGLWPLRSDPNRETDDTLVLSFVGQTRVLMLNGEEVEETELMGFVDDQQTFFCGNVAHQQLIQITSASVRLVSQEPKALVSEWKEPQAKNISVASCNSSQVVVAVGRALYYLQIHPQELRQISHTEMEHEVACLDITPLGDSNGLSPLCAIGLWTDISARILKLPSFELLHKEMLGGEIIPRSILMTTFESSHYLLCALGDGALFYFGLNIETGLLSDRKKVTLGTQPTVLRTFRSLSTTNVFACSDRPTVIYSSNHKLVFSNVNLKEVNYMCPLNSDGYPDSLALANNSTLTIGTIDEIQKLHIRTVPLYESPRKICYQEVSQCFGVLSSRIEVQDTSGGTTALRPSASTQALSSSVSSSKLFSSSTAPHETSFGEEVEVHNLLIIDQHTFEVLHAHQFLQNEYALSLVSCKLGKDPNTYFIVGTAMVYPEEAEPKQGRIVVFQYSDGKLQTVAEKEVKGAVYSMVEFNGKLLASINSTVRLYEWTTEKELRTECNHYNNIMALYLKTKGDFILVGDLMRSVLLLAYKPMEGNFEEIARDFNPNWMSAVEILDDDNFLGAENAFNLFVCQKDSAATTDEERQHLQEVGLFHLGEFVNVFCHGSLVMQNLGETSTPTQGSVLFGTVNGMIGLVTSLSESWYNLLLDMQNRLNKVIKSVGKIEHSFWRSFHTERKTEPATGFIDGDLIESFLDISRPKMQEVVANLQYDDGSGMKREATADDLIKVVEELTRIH
UniProt Q86WJ1: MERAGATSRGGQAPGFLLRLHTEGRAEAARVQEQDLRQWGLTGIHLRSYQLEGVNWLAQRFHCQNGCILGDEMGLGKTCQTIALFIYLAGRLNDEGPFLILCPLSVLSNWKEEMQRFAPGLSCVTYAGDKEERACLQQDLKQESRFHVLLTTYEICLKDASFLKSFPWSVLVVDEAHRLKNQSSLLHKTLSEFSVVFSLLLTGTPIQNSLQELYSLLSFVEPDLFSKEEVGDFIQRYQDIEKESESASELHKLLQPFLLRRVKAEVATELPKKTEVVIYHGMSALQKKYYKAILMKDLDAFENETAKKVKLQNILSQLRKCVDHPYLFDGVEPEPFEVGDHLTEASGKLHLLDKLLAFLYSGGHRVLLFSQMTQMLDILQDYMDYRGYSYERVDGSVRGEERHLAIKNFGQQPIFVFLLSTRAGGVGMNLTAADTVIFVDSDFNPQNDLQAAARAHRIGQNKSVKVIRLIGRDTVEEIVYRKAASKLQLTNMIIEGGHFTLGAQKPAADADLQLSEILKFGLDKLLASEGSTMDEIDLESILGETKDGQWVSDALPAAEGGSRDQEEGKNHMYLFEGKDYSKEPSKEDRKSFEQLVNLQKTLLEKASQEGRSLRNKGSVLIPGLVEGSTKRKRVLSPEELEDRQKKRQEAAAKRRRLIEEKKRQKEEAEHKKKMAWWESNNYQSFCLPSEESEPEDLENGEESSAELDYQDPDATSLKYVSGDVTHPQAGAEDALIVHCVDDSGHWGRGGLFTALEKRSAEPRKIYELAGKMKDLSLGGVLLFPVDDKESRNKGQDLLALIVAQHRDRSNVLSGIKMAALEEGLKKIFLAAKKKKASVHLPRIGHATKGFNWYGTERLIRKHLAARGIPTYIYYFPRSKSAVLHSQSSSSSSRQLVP

T1: Flag-VRK1 (Vaccinia-related kinase 1) (UniProt Q99986)
T1 sequence: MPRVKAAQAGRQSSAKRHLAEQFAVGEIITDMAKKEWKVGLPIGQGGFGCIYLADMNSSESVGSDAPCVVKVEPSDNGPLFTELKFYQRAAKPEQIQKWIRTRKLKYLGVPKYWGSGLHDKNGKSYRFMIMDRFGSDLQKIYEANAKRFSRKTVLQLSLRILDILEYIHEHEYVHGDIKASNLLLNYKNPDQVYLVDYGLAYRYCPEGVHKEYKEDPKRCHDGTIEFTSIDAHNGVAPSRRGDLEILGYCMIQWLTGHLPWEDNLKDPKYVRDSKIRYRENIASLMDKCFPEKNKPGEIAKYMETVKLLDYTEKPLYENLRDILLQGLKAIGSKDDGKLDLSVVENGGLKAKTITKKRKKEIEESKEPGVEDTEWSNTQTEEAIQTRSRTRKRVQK


Molecular target: T1, Flag-VRK1 (Vaccinia-related kinase 1)
Assay: affinity purification with mass spectrometry; VRK1 immunoprecipitated with magnetic beads, SDS-PAGE, Coomassie staining, excised gel digested, LC-MS/MS (Q-Exactive); cell line not stated

binding	Molecule
binds	USP7 (from UniProt Q93009 1-1102)
binds	DDB1 (from UniProt Q16531 1-1140)
binds	endogenous CHD1L (chromodomain helicase DNA binding protein 1-like) (from UniProt Q86WJ1 1-897)
binds	Barrier-to-autointegration factor (BAF) (protein, UniProt O75531 1-89) MTTSQKHRDFVAEPMGEKPVGSLAGIGEVLGKKLEERGFDKAYVVLGQFLVLKKDEDLFREWLKDTCGANAKQSRDCFGCLREWCDAFL

Results are given in words; binding and its absence hold for the method and conditions named. In cells and extracts the contact can be indirect. These calls come from enrichment with a bait or labelling near it, and not all partners need be listed. Where a sequence is shown, tags or fusion partners need not be part of it.
